Data: paper PMC10840333
Results are given in words; binding and its absence hold for the method and conditions named. Binding seen in cells or lysates may run through a third protein. Some binding calls cover weakened binding; strength is not graded here.

Chains of the proteins cited; added tags and fusions are not shown.
UniProt P08684: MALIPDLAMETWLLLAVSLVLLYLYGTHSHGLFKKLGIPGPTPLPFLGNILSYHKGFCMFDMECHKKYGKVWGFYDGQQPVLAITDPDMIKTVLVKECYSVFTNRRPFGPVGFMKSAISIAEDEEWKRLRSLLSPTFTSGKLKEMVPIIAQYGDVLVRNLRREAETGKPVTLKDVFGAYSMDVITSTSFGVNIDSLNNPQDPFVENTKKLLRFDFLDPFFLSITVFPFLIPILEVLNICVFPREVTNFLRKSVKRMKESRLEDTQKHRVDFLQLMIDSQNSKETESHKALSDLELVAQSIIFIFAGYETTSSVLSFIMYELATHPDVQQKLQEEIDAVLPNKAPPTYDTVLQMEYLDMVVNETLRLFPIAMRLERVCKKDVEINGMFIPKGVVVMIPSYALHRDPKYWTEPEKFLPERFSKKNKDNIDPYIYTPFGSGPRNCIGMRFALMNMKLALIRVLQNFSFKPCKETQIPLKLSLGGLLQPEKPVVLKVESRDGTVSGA
UniProt P10635: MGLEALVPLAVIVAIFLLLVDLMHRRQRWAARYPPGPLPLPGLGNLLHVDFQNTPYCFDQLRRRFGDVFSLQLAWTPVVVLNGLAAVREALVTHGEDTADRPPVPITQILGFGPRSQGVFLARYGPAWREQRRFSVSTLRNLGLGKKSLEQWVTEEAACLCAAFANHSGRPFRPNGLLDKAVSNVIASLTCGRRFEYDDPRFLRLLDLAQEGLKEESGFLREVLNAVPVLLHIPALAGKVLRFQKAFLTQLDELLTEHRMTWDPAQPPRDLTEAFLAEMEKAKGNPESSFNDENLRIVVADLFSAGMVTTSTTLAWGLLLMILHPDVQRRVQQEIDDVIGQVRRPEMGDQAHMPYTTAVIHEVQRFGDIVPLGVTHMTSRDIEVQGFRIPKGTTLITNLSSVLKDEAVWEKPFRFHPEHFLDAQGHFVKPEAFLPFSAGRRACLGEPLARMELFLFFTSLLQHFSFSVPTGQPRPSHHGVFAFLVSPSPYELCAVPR
UniProt P04406: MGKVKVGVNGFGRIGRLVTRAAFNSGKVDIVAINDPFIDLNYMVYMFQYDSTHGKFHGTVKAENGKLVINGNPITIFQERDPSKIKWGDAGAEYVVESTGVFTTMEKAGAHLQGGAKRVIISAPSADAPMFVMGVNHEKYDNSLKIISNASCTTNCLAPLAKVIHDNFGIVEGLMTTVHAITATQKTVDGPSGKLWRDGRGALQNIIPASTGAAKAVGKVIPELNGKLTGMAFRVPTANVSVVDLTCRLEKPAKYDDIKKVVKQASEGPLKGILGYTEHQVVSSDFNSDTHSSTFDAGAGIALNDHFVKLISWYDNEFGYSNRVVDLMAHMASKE

What was measured:
[1] = molecular target: FLAG and MYC-tagged human CYP3A4 (human) (UniProt P08684); assay: co-IP; HEK293T cell supernatants (1 mg protein), anti-FLAG antibody and protein G-Sepharose at 4 °C overnight; washed with 40 mM EPPS, 150 mM NaCl, 10% glycerol, 0.5% Nonidet P-40, pH 7.6; Western blot for GAPDH and Hsp90; cells heme-deficient (SA, heme-depleted serum), cultured normally, or given 5 μM hemin
[2] = molecular target: FLAG and MYC-tagged human CYP2D6 (human) (UniProt P10635); assay: as above
[3] = molecular target: FLAG-MYC tagged CYP2D6 expressed in HEPG2 cells (human) (UniProt P10635); assay: co-IP; HEPG2 cell supernatants, antibody pulldown on protein G-Sepharose, Western blot for GAPDH and Hsp90; CYP3A4 induced by rifampicin, CYP2D6 transfected; cells heme-deficient, cultured normally, or given hemin
[4] = molecular target: CYP3A4 induced by rifampicin in HEPG2 cells (human (endogenous in HEPG2)) (UniProt P08684); assay: as above

Row | Substance | binding [1] | binding [2] | binding [3] | binding [4]
1 | GAPDH (endogenous, HEK293T) (from UniProt P04406 1-335) (enzyme) | binds | binds |  | 
2 | GAPDH (endogenous, HEPG2) (from UniProt P04406 1-335) (enzyme) |  |  | binds | binds
